PubChem BioAssay AID1224830, NIAID | 2016

Aim: 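Genes whose knock-down alters the TNF-alpha reporter response to LPS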 (primary screen)
Cell system: human THP-1 monocytic leukaemia cells, TNF dual-luciferase reporter clone, PMA-differentiated to macrophage-like cells
Reagents: siRNA pool against human genes, 50 nM
Duration: LPS for 4 h, given about 3 days after siRNA transfection
Challenge: bacterial LPS (TLR4 ligand), 10 ng/ml
Measured: 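Ratio of firefly to renilla light, scaled to the plate median and expressed as a robust z-score per replicate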
Direction: TNF reporter robust z-score: higher = stronger TNF reporter response to LPS
Active means: 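Each well counts as active if its z-score is over 2.8 or under -1.5; controls are left without a call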
This is an unselected part of about 18,000 reagents tested. Over the whole deposit, about 2,900 (16%) were called active. 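Calls are made per well; low scores hint the gene aids the LPS response, high scores that it dampens it.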 Repeated entries: four replicate wells of each siRNA pool. Reagent sequences are not shown.

no.	Target gene	TNF reporter robust z-score	activity call
1	CCSER1 (coiled-coil serine rich protein 1)	0.02	inactive
2	CCSER1 (coiled-coil serine rich protein 1)	-0.16	inactive
3	CCSER1 (coiled-coil serine rich protein 1)	-0.05	inactive
4	ZBTB22 (zinc finger and BTB domain containing 22)	-0.56	inactive
5	ZBTB22 (zinc finger and BTB domain containing 22)	0.27	inactive
6	ZBTB22 (zinc finger and BTB domain containing 22)	-0.7	inactive
7	ZBTB22 (zinc finger and BTB domain containing 22)	-0.12	inactive
8	ZNF214 (zinc finger protein 214)	-0.31	inactive
9	ZNF214 (zinc finger protein 214)	0.74	inactive
10	ZNF214 (zinc finger protein 214)	-0.1	inactive
11	ZNF214 (zinc finger protein 214)	0.58	inactive
12	UBE3B (ubiquitin protein ligase E3B)	0.2	inactive
13	UBE3B (ubiquitin protein ligase E3B)	-0.57	inactive
14	UBE3B (ubiquitin protein ligase E3B)	-0.89	inactive
15	UBE3B (ubiquitin protein ligase E3B)	0.13	inactive
16	RPRD1B (regulation of nuclear pre-mRNA domain containing 1B)	-0.09	inactive
17	RPRD1B (regulation of nuclear pre-mRNA domain containing 1B)	0.24	inactive
18	RPRD1B (regulation of nuclear pre-mRNA domain containing 1B)	-0.32	inactive
19	RPRD1B (regulation of nuclear pre-mRNA domain containing 1B)	-0.28	inactive
20	ZPBP2 (zona pellucida binding protein 2)	-1.12	inactive
21	ZPBP2 (zona pellucida binding protein 2)	-1.19	inactive
22	ZPBP2 (zona pellucida binding protein 2)	0.96	inactive
23	ZPBP2 (zona pellucida binding protein 2)	-0.02	inactive
24	ITGAD (integrin subunit alpha D)	0.03	inactive
25	ITGAD (integrin subunit alpha D)	0.36	inactive
26	ITGAD (integrin subunit alpha D)	0.04	inactive
27	ITGAD (integrin subunit alpha D)	0.59	inactive
28	UBL5 (ubiquitin like 5)	-2.33	active
29	UBL5 (ubiquitin like 5)	-2.28	active
30	UBL5 (ubiquitin like 5)	-2.4	active
31	UBL5 (ubiquitin like 5)	-2.3	active
32	DEFA5 (defensin alpha 5)	2	inactive
33	DEFA5 (defensin alpha 5)	4.61	active
34	DEFA5 (defensin alpha 5)	3.39	active
35	DEFA5 (defensin alpha 5)	2.58	inactive
36	GJB3 (gap junction protein beta 3)	-0.95	inactive
37	GJB3 (gap junction protein beta 3)	-0.76	inactive
38	GJB3 (gap junction protein beta 3)	-0.87	inactive
39	GJB3 (gap junction protein beta 3)	0.07	inactive
40	NTN1 (netrin 1)	-0.15	inactive
41	NTN1 (netrin 1)	1.44	inactive
42	NTN1 (netrin 1)	0.79	inactive
43	NTN1 (netrin 1)	0.73	inactive
44	GATD1 (glutamine amidotransferase class 1 domain containing 1)	-0.35	inactive
45	GATD1 (glutamine amidotransferase class 1 domain containing 1)	-0.15	inactive
46	GATD1 (glutamine amidotransferase class 1 domain containing 1)	0.12	inactive
47	GATD1 (glutamine amidotransferase class 1 domain containing 1)	-0.25	inactive
48	KDM2A (lysine demethylase 2A)	0.87	inactive
49	KDM2A (lysine demethylase 2A)	-1.07	inactive
50	KDM2A (lysine demethylase 2A)	-1.32	inactive
51	KDM2A (lysine demethylase 2A)	-1.18	inactive
52	LRP5L (LDL receptor related protein 5 like (pseudogene))	0.73	inactive
53	LRP5L (LDL receptor related protein 5 like (pseudogene))	0.96	inactive
54	LRP5L (LDL receptor related protein 5 like (pseudogene))	-0.33	inactive
55	DGCR8 (DGCR8 microprocessor complex subunit)	-0.5	inactive
56	DGCR8 (DGCR8 microprocessor complex subunit)	-0.33	inactive
57	DGCR8 (DGCR8 microprocessor complex subunit)	0.16	inactive
58	DGCR8 (DGCR8 microprocessor complex subunit)	0.38	inactive
59	ENKD1 (enkurin domain containing 1)	-0.74	inactive
60	ENKD1 (enkurin domain containing 1)	-0.78	inactive
61	ENKD1 (enkurin domain containing 1)	-0.16	inactive
62	ENKD1 (enkurin domain containing 1)	0.02	inactive
63	NFIL3 (nuclear factor, interleukin 3 regulated)	-0.78	inactive
64	NFIL3 (nuclear factor, interleukin 3 regulated)	-1.03	inactive
65	NFIL3 (nuclear factor, interleukin 3 regulated)	-0.88	inactive
66	NFIL3 (nuclear factor, interleukin 3 regulated)	-0.27	inactive
67	LIPJ (lipase family member J)	1.35	inactive
68	LIPJ (lipase family member J)	-0.15	inactive
69	LIPJ (lipase family member J)	1.34	inactive
70	LIPJ (lipase family member J)	1.09	inactive
71	MED7 (mediator complex subunit 7)	-0.74	inactive
72	MED7 (mediator complex subunit 7)	-1.35	inactive
73	MED7 (mediator complex subunit 7)	-0.52	inactive
74	MED7 (mediator complex subunit 7)	-1.67	active
75	PNMA3 (PNMA family member 3)	0.49	inactive
76	PNMA3 (PNMA family member 3)	0.69	inactive
77	PNMA3 (PNMA family member 3)	0.36	inactive
78	PNMA3 (PNMA family member 3)	-0.89	inactive

Hits, of those listed so far:
Target gene	TNF reporter robust z-score	activity call
UBL5 (ubiquitin like 5)	-2.33	active
UBL5 (ubiquitin like 5)	-2.28	active
UBL5 (ubiquitin like 5)	-2.4	active
UBL5 (ubiquitin like 5)	-2.3	active
DEFA5 (defensin alpha 5)	4.61	active
DEFA5 (defensin alpha 5)	3.39	active
MED7 (mediator complex subunit 7)	-1.67	active
